We go through 1 molecule from paper PMC9556925.

These are yes or no findings as the source states them, for the method shown. Binding seen in cells or lysates may run through a third protein. Binding calls can cover weak binding; strength is not graded here. Tags and fused reporters may be left off the sequences shown.

The test concerns the target IRS1myc. Put plainly: co-IP; HEK293T cells transfected 24 h; IRS1myc precipitated with Myc-Trap_A from lysate (50 mM Tris-HCl pH 7.4, 150 mM NaCl, 1 mM EDTA, 1% Triton X-100), 2 h at 4°C; immunoblot; for DYRK1A-GFP also after siRNA knock-down of DCAF7 (Figure S1C, cells not stated).

B1: DCAF7-Flag (protein, UniProt P61962 1-342)
chain: MSLHGKRKEIYKYEAPWTVYAMNWSVRPDKRFRLALGSFVEEYNNKVQLVGLDEESSEFICRNTFDHPYPTTKLMWIPDTKGVYPDLLATSGDYLRVWRVGETETRLECLLNNNKNSDFCAPLTSFDWNEVDPYLLGTSSIDTTCTIWGLETGQVLGRVNLVSGHVKTQLIAHDKEVYDIAFSRAGGGRDMFASVGADGSVRMFDLRHLEHSTIIYEDPQHHPLLRLCWNKQDPNYLATMAMDGMEVVILDVRVPCTPVARLNNHRACVNGIAWAPHSSCHICTAADDHQALIWDIQQMPRAIEDPILAYTAEGEINNVQWASTQPDWIAICYNNCLEILRV
In the case of B1, the binding result is “binds”.
